Assay results as given in publication doi:10.1101/2021.05.06.441257.

Sequences of proteins named here, by UniProt entry; tags and fusion partners are left off.
UniProt P38873: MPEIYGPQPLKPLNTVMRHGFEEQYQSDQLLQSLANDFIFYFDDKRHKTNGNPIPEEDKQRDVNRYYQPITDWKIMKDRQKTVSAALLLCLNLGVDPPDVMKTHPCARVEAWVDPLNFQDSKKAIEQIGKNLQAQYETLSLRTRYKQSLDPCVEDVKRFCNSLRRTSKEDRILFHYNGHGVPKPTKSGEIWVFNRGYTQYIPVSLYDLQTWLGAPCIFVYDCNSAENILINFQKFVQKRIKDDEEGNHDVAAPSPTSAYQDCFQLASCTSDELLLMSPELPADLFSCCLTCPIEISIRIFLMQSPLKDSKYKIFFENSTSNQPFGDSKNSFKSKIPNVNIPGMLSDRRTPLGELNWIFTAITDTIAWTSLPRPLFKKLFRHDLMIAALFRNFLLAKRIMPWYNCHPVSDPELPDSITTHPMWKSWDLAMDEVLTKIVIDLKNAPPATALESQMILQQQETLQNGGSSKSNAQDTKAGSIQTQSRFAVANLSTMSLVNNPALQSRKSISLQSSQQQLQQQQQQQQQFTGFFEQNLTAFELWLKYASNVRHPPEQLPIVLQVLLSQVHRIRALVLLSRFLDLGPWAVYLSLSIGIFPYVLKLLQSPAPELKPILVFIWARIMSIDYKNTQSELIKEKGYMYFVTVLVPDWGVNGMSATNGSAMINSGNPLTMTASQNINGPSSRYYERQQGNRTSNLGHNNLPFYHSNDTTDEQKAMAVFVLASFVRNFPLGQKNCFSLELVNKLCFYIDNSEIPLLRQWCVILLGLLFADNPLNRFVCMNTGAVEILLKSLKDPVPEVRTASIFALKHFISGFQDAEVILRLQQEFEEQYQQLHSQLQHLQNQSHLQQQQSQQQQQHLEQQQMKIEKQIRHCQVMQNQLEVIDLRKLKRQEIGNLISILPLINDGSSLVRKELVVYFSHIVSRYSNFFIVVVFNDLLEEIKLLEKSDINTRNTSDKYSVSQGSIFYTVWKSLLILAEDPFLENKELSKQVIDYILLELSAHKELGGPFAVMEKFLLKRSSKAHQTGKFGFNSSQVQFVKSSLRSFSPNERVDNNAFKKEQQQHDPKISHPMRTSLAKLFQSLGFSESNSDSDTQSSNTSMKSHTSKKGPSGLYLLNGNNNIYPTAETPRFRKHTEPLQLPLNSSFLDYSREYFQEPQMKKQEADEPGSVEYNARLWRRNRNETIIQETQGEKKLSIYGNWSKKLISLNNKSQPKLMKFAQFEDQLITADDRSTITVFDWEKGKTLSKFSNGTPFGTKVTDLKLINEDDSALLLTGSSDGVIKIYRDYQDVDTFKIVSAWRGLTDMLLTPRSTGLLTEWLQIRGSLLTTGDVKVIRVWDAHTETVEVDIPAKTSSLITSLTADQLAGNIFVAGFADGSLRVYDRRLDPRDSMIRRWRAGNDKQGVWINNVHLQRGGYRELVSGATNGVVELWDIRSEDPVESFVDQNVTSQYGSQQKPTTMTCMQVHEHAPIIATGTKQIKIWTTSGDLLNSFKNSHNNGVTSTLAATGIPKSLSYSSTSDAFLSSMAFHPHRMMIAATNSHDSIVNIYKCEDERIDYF
UniProt P47170: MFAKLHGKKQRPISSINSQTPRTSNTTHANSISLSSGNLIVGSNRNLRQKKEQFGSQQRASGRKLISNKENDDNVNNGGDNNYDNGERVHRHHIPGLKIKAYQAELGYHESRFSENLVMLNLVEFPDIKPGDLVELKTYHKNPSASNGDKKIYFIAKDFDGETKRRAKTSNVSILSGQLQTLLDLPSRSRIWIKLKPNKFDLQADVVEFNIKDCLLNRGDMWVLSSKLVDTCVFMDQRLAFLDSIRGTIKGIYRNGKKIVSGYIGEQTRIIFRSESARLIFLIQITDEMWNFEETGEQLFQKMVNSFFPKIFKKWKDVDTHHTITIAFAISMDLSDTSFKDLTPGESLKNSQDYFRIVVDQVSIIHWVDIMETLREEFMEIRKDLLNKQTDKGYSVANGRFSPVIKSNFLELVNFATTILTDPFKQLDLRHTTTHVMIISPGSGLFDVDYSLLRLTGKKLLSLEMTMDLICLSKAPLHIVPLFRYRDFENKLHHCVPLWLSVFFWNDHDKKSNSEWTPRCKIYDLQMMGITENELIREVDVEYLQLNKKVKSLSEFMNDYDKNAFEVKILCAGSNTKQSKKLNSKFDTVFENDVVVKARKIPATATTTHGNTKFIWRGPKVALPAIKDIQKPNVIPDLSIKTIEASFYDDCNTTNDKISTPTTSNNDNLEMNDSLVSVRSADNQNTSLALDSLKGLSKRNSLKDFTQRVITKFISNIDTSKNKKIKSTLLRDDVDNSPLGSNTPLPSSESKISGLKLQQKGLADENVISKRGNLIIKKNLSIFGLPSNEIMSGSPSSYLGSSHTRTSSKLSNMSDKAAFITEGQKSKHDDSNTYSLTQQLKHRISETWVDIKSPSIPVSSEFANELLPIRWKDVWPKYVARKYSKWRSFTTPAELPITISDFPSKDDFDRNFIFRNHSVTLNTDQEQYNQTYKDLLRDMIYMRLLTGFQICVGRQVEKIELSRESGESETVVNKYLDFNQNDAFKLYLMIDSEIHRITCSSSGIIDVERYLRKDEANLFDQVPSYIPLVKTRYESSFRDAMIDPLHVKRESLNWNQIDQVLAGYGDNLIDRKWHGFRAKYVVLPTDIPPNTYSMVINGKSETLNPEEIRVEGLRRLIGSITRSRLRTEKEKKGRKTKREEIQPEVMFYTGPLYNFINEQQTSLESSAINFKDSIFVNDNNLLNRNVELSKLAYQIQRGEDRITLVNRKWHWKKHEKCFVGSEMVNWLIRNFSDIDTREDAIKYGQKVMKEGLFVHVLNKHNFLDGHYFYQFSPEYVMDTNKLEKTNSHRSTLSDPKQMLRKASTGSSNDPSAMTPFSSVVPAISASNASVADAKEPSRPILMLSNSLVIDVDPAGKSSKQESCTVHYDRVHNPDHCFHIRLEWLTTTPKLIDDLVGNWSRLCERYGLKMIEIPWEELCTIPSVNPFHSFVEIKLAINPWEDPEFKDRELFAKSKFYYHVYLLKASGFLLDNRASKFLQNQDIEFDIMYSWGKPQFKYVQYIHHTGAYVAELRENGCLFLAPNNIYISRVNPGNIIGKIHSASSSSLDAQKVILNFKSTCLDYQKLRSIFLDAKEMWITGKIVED

T1: GFP-Vps501 (S. cerevisiae) (UniProt P36158)
T1 sequence: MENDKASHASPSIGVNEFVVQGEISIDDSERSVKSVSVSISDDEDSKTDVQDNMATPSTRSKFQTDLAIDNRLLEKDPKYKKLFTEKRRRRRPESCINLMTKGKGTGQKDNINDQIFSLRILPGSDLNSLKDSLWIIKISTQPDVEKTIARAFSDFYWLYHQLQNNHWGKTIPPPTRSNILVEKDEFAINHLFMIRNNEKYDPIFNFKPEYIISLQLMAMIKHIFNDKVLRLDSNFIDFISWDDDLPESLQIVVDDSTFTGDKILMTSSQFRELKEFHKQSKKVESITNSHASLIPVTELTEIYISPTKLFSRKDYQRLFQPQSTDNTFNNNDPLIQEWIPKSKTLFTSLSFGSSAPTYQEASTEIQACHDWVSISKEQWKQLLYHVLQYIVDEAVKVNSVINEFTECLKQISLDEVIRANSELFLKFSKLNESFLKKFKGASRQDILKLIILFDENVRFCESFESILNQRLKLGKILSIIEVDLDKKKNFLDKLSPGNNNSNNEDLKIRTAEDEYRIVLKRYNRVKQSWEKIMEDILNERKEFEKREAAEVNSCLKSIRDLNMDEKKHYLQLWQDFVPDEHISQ


Biological target: T1, GFP-Vps501 (S. cerevisiae)
Test: affinity purification with mass spectrometry

| Molecule | binding |
| --- | --- |
| Kog1 (from UniProt P38873 1-1557) | binds |
| Sea1 (from UniProt P47170 1-1584) | binds |
| Seh1 (protein, UniProt P53011 1-349) MQPFDSGHDDLVHDVVYDFYGRHVATCSSDQHIKVFKLDKDTSNWELSDSWRAHDSSIVAIDWASPEYGRIIASASYDKTVKLWEEDPDQEECSGRRWNKLCTLNDSKGSLYSVKFAPAHLGLKLACLGNDGILRLYDALEPSDLRSWTLTSEMKVLSIPPANHLQSDFCLSWCPSRFSPEKLAVSALEQAIIYQRGKDGKLHVAAKLPGHKSLIRSISWAPSIGRWYQLIATGCKDGRIRIFKITEKLSPLASEESLTNSNMFDNSADVDMDAQGRSDSNTEEKAELQSNLQVELLSEHDDHNGEVWSVSWNLTGTILSSAGDDGKVRLWKATYSNEFKCMSVITAQQ | binds |

Results are given in words; binding and its absence hold for the method and conditions named. Binding seen in cells or lysates may run through a third protein. These calls come from enrichment with a bait or labelling near it, and not all partners need be listed. Tags and fused reporters may be left off the sequences shown.
